Data taken from PMC3697071 (Natural product communications, 2010).
In brackets after ≈: the same amount, converted by molar mass.

Key:
[1] = test system: Aspergillus fumigatus ATCC 90906; test: Antimicrobial assay; format: cell-based; settings: ATCC90906, read-out: A. fumigatus MIC
[2] = test system: Candida albicans ATCC 90028; test: Antimicrobial assay; format: cell-based; settings: ATCC90028, read-out: C. albicans MIC

Q: Which results are given for `C[C@@H]1[C@H](O)[C@@H](C)/C=C/C=C/C=C/C=C/C=C/C=C/C=C/[C@H](O[C@@H]2O[C@H](C)[C@@H](O)[C@H](N)[C@@H]2O)C[C@@H]2O[C@](O)(C[C@@H](O)C[C@@H](O)[C@H](O)CC[C@@H](O)C[C@@H](O)CC(=O)O[C@H]1C)C[C@H](O)[C@H]2C(=O)O` [Amphotericin B, reference compound]?
A: MIC [1]: 2.5 mg/L (≈ 2.71 µM); MIC [2]: 1.25 mg/L (≈ 1.35 µM)
